# For at least one entry, the source does not settle the construct or the ends of the probe. Protein sequences can lack the tags named with them.
# Key:
# [1] = test system: T1, MG153-9 RT (uncultivated organism (metagenomic)); test: activity assay; details: primer extension, 3 mM MgCl2, 37 C, protein translated in vitro, protein details: N-terminal Strep (PURExpress), DNA:RNA hybrid, only the site is given
# T1 sequence: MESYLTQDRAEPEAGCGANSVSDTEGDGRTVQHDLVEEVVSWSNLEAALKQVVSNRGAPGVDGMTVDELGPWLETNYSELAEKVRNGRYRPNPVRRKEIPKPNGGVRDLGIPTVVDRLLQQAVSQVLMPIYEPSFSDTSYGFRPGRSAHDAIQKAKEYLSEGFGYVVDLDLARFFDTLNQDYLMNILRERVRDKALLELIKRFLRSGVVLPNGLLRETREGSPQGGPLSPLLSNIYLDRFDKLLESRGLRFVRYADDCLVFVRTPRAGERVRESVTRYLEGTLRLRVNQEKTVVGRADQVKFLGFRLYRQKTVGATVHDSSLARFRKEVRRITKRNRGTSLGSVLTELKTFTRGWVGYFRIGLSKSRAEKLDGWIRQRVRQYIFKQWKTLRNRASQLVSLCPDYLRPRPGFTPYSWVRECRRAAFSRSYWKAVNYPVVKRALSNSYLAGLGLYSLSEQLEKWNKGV
# [2] = test system: T2, FH-MCP-MG153-16 RT (uncultivated organism (metagenomic)); test: activity in cells; details: HEK293T, PCR of cDNA; protein in cells; protein details: N-terminal Flag-HA-MS2 coat protein; DNA:RNA hybrid
# T2 sequence: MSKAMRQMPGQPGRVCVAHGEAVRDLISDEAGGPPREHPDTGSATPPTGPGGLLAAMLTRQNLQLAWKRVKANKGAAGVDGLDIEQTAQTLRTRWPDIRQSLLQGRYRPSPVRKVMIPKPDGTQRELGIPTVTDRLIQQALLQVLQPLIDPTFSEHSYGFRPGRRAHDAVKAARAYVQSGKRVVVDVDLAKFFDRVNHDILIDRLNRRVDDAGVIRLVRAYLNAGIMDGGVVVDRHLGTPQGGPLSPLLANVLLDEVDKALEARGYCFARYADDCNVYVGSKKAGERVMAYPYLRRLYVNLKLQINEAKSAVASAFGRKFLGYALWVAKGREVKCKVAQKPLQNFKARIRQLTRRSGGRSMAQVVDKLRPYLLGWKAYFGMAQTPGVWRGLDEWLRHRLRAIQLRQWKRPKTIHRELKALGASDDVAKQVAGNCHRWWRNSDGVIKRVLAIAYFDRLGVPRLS
# [3] = test system: T3, FH-MCP-MG153-7 RT (uncultivated organism (metagenomic)); test: activity in cells; details: HEK293T, Taqman qPCR; protein in cells; protein details: N-terminal Flag-HA-MS2 coat protein; DNA:RNA hybrid
# T3 sequence: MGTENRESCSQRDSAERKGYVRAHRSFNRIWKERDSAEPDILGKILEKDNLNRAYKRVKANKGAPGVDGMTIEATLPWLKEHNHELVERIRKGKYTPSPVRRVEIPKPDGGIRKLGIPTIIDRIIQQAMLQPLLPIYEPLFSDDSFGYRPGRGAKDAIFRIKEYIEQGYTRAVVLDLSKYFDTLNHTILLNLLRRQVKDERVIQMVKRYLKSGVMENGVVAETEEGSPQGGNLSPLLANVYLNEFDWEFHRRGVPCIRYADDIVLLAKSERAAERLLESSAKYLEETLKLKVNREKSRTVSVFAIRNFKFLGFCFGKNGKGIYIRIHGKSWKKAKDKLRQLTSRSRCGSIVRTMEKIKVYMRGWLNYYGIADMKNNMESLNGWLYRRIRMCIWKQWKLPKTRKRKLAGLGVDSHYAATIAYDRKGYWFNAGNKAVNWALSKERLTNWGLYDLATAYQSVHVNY
# [4] = test system: T4, FH-MCP-MG153-20 RT (uncultivated organism (metagenomic)); test: activity in cells; details: HEK293T, Taqman qPCR; protein in cells; protein details: N-terminal Flag-HA-MS2 coat protein; DNA:RNA hybrid
# T4 sequence: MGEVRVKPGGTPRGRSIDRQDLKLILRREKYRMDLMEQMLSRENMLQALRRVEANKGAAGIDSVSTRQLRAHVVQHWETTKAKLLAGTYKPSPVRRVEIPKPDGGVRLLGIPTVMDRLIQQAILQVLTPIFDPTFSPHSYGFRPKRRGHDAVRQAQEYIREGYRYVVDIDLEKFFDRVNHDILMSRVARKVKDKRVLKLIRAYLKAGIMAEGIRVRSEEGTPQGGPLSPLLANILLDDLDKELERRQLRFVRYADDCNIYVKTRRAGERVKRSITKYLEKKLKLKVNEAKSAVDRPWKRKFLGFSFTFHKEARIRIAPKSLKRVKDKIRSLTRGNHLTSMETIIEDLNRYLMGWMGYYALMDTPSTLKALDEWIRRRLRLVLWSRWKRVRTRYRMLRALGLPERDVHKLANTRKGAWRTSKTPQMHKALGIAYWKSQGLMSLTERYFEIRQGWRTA
# [5] = test system: T5, FH-MCP-MG153-21 RT (uncultivated organism (metagenomic)); test: activity in cells; details: HEK293T, PCR of cDNA; protein in cells; protein details: N-terminal Flag-HA-MS2 coat protein; DNA:RNA hybrid
# T5 sequence: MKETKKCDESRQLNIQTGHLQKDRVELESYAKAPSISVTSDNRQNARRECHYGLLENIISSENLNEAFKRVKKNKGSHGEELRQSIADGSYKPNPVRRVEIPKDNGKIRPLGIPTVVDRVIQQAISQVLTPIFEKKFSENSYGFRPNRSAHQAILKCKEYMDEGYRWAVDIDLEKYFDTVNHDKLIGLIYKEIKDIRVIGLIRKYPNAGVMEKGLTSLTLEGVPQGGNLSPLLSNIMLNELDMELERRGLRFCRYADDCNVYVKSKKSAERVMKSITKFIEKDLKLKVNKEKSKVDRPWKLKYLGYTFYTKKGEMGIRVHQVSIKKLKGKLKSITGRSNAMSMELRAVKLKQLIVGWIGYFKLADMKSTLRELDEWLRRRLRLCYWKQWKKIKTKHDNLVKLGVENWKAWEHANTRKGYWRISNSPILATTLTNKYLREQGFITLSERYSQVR
# [6] = test system: T6, FH-MCP-MG153-4 RT (uncultivated organism (metagenomic)); test: activity in cells; details: HEK293T, Taqman qPCR; protein in cells; protein details: N-terminal Flag-HA-MS2 coat protein; DNA:RNA hybrid
# T6 sequence: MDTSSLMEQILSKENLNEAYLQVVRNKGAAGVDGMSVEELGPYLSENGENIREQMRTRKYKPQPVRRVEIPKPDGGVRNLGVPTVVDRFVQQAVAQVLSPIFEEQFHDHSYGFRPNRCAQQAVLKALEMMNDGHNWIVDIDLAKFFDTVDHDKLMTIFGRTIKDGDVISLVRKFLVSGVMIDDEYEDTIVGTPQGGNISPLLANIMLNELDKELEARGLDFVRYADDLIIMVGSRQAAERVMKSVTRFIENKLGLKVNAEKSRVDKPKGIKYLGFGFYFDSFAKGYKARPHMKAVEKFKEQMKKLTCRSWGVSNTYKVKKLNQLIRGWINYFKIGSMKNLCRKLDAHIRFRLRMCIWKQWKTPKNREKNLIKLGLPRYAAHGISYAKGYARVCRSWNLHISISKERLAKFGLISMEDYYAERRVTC
# [7] = test system: T7, FH-MCP-MG153-15 RT (uncultivated organism (metagenomic)); test: activity in cells; details: HEK293T, normalized to protein expression, protein details: N-terminal Flag-HA-MS2 coat protein, DNA:RNA hybrid
# T7 sequence: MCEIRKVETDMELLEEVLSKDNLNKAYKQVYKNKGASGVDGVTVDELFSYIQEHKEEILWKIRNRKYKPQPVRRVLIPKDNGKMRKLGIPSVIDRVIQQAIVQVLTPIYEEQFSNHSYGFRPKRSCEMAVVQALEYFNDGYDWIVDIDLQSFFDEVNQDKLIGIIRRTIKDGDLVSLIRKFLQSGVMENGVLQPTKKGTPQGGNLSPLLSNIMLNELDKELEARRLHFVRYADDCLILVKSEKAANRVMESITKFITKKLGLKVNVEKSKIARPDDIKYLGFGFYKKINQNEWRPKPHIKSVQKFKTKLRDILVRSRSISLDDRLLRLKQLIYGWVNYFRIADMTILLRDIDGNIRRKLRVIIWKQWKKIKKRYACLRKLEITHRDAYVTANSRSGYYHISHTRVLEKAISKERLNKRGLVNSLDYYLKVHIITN
# [8] = test system: T8, FH-MCP-MG153-53 RT (uncultivated organism (metagenomic)); test: activity in cells; details: HEK293T, Taqman qPCR; protein in cells; protein details: N-terminal Flag-HA-MS2 coat protein; DNA:RNA hybrid
# T8 sequence: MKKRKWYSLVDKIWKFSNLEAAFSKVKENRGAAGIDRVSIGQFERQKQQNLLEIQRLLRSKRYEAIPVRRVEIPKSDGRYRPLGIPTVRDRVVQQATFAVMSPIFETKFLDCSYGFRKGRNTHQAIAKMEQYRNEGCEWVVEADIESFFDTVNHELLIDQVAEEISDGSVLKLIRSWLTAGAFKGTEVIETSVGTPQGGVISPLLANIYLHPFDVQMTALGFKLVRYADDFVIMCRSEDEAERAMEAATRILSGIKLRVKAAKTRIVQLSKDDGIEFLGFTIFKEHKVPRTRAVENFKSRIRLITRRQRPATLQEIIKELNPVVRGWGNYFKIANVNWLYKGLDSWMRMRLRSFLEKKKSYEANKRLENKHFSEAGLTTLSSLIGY
# [9] = test system: T9, FH-MCP-MG153-5 RT (uncultivated organism (metagenomic)); test: activity in cells; details: HEK293T, Taqman qPCR; protein in cells; protein details: N-terminal Flag-HA-MS2 coat protein; DNA:RNA hybrid
# T9 sequence: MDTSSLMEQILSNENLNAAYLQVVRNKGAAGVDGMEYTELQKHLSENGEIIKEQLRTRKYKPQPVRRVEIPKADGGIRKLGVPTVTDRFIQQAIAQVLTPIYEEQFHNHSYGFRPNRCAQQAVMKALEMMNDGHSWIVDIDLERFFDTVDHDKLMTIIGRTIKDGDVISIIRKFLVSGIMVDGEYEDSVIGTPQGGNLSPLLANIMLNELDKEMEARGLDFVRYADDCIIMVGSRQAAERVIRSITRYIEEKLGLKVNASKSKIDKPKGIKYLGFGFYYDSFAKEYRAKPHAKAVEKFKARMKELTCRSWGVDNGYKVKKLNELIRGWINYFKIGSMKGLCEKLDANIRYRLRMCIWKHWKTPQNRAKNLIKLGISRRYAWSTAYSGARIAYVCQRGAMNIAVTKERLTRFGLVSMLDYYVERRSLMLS
# [10] = test system: T10, FH-MCP-MG153-18 RT (uncultivated organism (metagenomic)); test: activity in cells; details: HEK293T, Taqman qPCR; protein in cells; protein details: N-terminal Flag-HA-MS2 coat protein; DNA:RNA hybrid
# T10 sequence: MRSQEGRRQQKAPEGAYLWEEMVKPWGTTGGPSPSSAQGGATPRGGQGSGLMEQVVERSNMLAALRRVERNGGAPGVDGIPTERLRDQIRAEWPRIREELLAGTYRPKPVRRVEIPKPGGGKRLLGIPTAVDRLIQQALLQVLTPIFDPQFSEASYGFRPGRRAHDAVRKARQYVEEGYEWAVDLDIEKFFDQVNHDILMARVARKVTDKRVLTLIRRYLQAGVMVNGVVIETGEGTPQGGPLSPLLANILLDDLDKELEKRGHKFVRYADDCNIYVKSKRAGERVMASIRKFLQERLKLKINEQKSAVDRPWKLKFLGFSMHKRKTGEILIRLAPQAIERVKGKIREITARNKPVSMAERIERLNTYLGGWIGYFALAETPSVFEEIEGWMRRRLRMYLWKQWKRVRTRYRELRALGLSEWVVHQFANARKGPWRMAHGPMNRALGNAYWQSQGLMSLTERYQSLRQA
sequence,measurement,setting,value
AGACGGTCACAGCTTGTCTG [202 nt RNA template with PS primer 3],activity on this sequence,"[1]; PS A*G*A*C*G*GTCACAGCTT*G*T*C*TG, label: …",active
ATGGTATTTACTCTCGAAGACTTTGTCGGTGATTGGCGGCAAACTGCTGGGTATAATTTGGATCAGGTGCTGGAGCAAGGCGGCGTCAGCAGCCTGTTCCAAAACTTGGGAGTCTCAGTGACGCCAATTCAGCGGATCGTTCTTTCCGGGGAGAACGGATTGAAAATTGATATACACGTAATTATTCCATACGAGGGCCTCTCCGGTGATCAGATGGGTCAAATTGAGAAGATATTCAAAGTTGTTTATCCCGTAGACGACCACCATTTCAAAGTCATTCTCCATTACGGTACGTTAGTCATTGATGGCGTCACCCCTAATATGATAGATTACTTTGGCCGTCCCTACGAGGGAATTGCTGTGTTTGATGGGAAGAAAATTACAGTGACCGGAACTCTTTGGAATGGGAATAAGATCATTGATGAAAGACTTATAAATCCTGATGGGAGTCTCCTCTTTAGAGTGACAATTAATGGGGTAACAGGATGGAGACTCTGTGAGCGGATCTTGGCTTAGCCCAAACCCAAACCCAAACCTTTAGAGCTAGGCCAACATGAGGATTACCCATGTCTGCAGGGCCTAGCAAGTTAAAATAAGGCTAGTCCGTTATCAACTTGGCCAGGACTGAGGATTACCCAGTCTATCTGCAGGGCCAAGTAAAAAAAAAAGGAAGGGAAAAGGGG / GGTTTGGGTTTGGGTTTGGG [nanoluciferase mRNA annealed to DNA primer],activity on this sequence,[2],active
same,activity on this sequence (relative to TGIRT),[3],> 1
same,activity on this sequence (relative to TGIRT),[4],> 1
same,activity on this sequence,[5],active
same,activity on this sequence (relative to TGIRT),[6],> 1
same,activity on this sequence (fold relative to TGIRT),[7],10
same,activity on this sequence (relative to TGIRT),[8],> 1
same,activity on this sequence (relative to TGIRT),[9],> 1
same,activity on this sequence (relative to TGIRT),[10],> 1
AGACGGTCACAGCTTGTCTG [202 nt RNA template with PS primer 1],activity on this sequence,"[1]; 5 PS bonds at 5' end of primer, label: 5'-FAM",active
AGACGGTCACAGCTTGTCTG [202 nt RNA template with PS primer 2],activity on this sequence,"[1]; 5 PS bonds at both 5' and 3' ends of primer, label: 5'-FAM",active

# Reference: patent US20240287484
